From publication PMC11302875
These are yes or no findings as the source states them, for the method shown. Binding seen in cells or lysates may run through a third protein. Some results given as binding are weak or reduced against the parent protein; the word gives no strength. For some assays here: Sequences can lack the tags named with a protein. Each block holds one molecule with its values, some of them ahead of it.

Protein sequences, listed by entry. Tags and fused reporters are not part of them.
UniProt Q99814: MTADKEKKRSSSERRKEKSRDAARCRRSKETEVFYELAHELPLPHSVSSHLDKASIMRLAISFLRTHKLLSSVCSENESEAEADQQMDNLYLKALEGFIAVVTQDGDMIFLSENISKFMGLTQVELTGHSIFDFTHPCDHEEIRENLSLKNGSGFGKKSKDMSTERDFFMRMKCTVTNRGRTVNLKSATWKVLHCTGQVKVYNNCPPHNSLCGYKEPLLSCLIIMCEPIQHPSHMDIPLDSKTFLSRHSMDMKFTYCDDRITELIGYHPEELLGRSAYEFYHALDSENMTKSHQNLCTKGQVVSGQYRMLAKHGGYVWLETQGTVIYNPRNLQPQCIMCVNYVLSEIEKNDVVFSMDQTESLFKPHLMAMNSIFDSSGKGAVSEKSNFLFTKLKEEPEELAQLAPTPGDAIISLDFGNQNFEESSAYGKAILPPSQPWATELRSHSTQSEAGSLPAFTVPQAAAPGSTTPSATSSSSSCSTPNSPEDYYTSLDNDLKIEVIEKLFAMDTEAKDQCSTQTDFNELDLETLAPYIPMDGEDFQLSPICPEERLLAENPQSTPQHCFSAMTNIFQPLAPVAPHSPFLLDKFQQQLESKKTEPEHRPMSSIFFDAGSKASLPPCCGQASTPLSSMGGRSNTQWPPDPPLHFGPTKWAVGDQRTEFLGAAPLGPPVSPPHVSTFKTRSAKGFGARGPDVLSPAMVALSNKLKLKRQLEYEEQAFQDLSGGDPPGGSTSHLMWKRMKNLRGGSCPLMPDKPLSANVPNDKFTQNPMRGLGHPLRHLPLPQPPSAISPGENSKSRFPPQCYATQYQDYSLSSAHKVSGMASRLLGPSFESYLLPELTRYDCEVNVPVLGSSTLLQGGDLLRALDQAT

Key:
[1] = target: T1, NRF2 (human (endogenous in HUVECs)) (UniProt Q16236); experiment: co-IP; nuclear proteins of HUVECs expressing HA-HIF-2α-WT or mutant, medium with 5 mM or 25 mM glucose
T1 sequence: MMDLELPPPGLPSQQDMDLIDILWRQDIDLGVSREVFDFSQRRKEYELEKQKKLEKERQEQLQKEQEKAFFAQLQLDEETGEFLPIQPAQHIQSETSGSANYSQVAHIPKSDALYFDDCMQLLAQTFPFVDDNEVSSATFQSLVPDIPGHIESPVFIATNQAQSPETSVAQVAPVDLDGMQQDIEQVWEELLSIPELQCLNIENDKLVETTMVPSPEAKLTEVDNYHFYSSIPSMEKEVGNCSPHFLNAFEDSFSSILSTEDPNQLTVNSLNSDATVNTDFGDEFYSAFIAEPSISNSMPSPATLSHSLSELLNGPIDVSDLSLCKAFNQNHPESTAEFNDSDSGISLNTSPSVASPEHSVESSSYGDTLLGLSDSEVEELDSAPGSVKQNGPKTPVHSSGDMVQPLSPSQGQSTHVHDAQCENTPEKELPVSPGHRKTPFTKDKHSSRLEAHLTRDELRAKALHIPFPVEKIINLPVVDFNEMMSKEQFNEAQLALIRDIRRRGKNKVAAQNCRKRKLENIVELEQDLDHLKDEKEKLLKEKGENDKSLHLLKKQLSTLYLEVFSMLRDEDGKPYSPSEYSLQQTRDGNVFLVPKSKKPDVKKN

Myc-NRF2 (human) = target: T2, Myc-NRF2 (human) (UniProt Q16236); experiment: co-IP; HUVECs at 5 mM and 25 mM glucose; NRF2 immunoprecipitated with an anti-Myc antibody, HIF-2α detected by Western blot
T2 sequence: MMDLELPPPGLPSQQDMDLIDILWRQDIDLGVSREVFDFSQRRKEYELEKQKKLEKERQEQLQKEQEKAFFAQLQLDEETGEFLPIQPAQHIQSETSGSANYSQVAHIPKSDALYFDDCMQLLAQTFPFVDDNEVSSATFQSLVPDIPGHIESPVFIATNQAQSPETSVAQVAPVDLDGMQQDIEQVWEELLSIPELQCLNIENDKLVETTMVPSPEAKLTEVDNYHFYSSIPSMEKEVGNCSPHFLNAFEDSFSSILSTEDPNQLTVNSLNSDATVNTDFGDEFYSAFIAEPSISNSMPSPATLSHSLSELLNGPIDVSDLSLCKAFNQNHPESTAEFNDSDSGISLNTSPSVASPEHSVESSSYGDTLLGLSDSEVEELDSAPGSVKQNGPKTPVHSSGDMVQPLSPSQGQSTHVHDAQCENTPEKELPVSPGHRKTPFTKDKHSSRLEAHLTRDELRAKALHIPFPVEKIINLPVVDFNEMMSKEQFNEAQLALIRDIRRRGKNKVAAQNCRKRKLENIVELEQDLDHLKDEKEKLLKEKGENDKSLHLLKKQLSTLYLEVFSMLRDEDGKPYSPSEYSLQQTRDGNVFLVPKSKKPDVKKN

[2] = target: T1, NRF2 (human (endogenous in HUVECs)); experiment: co-IP; HUVEC lysate, 500 μg total protein with primary antibody and protein A/G beads overnight at 4°C, Western blot; cells at 5-25 mM glucose (Fig. 4I) or at 25 mM glucose with Oltipraz (Fig. 8B)
[3] = target: T1, NRF2 (human (endogenous in HUVECs)); experiment: as above; remark: listed apart in the source
HA-HIF-2α (human) = HA-HIF-2α (human) (UniProt Q99814); experiment: co-IP; FLAG-tagged NRF2 truncations and HA-tagged HIF-2α expressed in HEK293T cells; immunoprecipitation with an anti-HA antibody, Western blot

- binding [1]: binds
Molecule: HA-HIF-2α-WT (from UniProt Q99814 1-870)

- binding (Myc-NRF2 (human)): binds
- binding [2]: binds
Molecule: HIF-2α (from UniProt Q99814 1-870)

- binding [3]: binds
B1: Sirt2 (protein, UniProt Q8IXJ6 1-389)
chain: MAEPDPSHPLETQAGKVQEAQDSDSDSEGGAAGGEADMDFLRNLFSQTLSLGSQKERLLDELTLEGVARYMQSERCRRVICLVGAGISTSAGIPDFRSPSTGLYDNLEKYHLPYPEAIFEISYFKKHPEPFFALAKELYPGQFKPTICHYFMRLLKDKGLLLRCYTQNIDTLERIAGLEQEDLVEAHGTFYTSHCVSASCRHEYPLSWMKEKIFSEVTPKCEDCQSLVKPDIVFFGESLPARFFSCMQSDFLKVDLLLVMGTSLQVQPFASLISKAPLSTPRLLINKEKAGQSDPFLGMIMGLGGGMDFDSKKAYRDVAWLGECDQGCLALAELLGWKKELEDLVRREHASIDAQSGAGVPNPSTSASPKKSPPPAKDEARTTEREKPQ

- binding (HA-HIF-2α (human)): binds
B2: FLAG-tagged NRF2 (1-605aa) (protein, UniProt Q16236 1-605)
chain: MMDLELPPPGLPSQQDMDLIDILWRQDIDLGVSREVFDFSQRRKEYELEKQKKLEKERQEQLQKEQEKAFFAQLQLDEETGEFLPIQPAQHIQSETSGSANYSQVAHIPKSDALYFDDCMQLLAQTFPFVDDNEVSSATFQSLVPDIPGHIESPVFIATNQAQSPETSVAQVAPVDLDGMQQDIEQVWEELLSIPELQCLNIENDKLVETTMVPSPEAKLTEVDNYHFYSSIPSMEKEVGNCSPHFLNAFEDSFSSILSTEDPNQLTVNSLNSDATVNTDFGDEFYSAFIAEPSISNSMPSPATLSHSLSELLNGPIDVSDLSLCKAFNQNHPESTAEFNDSDSGISLNTSPSVASPEHSVESSSYGDTLLGLSDSEVEELDSAPGSVKQNGPKTPVHSSGDMVQPLSPSQGQSTHVHDAQCENTPEKELPVSPGHRKTPFTKDKHSSRLEAHLTRDELRAKALHIPFPVEKIINLPVVDFNEMMSKEQFNEAQLALIRDIRRRGKNKVAAQNCRKRKLENIVELEQDLDHLKDEKEKLLKEKGENDKSLHLLKKQLSTLYLEVFSMLRDEDGKPYSPSEYSLQQTRDGNVFLVPKSKKPDVKKN
